Test results published in patent US20130085469A1, “TAUROLIDINE FORMULATIONS AND DELIVERY: THERAPEUTIC TREATMENTS AND ANTIMICROBIAL PROTECTION AGAINST BACTERIAL BIOFILM FORMATION” (priority 2004, published 2013).

Test system: bacteria
Assay: PK/PD surrogate markers calculated from concentration profiles

SMILES | CP/MIC | AUC/MIC (AUC from clearance curve in FIG. 4)
CN[C@H](CC(C)C)C(=O)N[C@H]1C(=O)N[C@@H](CC(N)=O)C(=O)N[C@H]2C(=O)N[C@H]3C(=O)N[C@H](C(=O)N[C@H](C(=O)O)c4cc(O)cc(O)c4-c4cc3ccc4O)[C@H](O)c3ccc(c(Cl)c3)Oc3cc2cc(c3O[C@@H]2O[C@H](CO)[C@@H](O)[C@H](O)[C@H]2O[C@H]2C[C@](C)(N)[C@H](O)[C@H](C)O2)Oc2ccc(cc2Cl)[C@H]1O [Vancomycin] | 12 | 
O=S1(=O)CCN(CN2CCS(=O)(=O)NC2)CN1 [Taurolidine, 4,4′ Methlyen-bis(tetrahydro-2H-1,4-thiadiazin-1,1dioxide)] | 0.3 | 2.26
